Results: publication PMC5696171
Results are given in words; binding and its absence hold for the method and conditions named. Binding seen in cells or lysates may run through a third protein. Sequences can lack the tags named with a protein.

Target: T1, GST-ZO-1 (1520-1745) (UniProt P39447)
T1 sequence: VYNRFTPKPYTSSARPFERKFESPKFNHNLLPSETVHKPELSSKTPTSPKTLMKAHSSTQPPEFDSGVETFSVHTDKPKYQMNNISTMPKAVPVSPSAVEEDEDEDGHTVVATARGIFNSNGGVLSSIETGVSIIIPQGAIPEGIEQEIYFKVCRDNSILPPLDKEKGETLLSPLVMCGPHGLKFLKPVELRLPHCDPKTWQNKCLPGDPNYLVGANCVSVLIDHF
Experiment: pull-down; GST-ZO-1 (1520-1745), ~10 ug, on glutathione-Sepharose 4B beads, incubated with lysates of transfected 293T cells; washed with buffer A (20 mM Tris-HCl, 150 mM NaCl, 1 mM EDTA, 10% glycerol, 1% NP-40, pH 7.4); eluted with 25 mM glutathione; western blot with anti-myc; only the target purified

Substance: myc-tagged ARHGEF11exon38(+)
- binding: no binding
